Data published in PMC4965013, “Open Source Drug Discovery with the Malaria Box Compound Collection for Neglected Diseases and Beyond” (PLoS Pathogens, 2016).

Protein sequences, listed by entry. Tags and fused reporters are not part of them.
UniProt P41595, whole entry: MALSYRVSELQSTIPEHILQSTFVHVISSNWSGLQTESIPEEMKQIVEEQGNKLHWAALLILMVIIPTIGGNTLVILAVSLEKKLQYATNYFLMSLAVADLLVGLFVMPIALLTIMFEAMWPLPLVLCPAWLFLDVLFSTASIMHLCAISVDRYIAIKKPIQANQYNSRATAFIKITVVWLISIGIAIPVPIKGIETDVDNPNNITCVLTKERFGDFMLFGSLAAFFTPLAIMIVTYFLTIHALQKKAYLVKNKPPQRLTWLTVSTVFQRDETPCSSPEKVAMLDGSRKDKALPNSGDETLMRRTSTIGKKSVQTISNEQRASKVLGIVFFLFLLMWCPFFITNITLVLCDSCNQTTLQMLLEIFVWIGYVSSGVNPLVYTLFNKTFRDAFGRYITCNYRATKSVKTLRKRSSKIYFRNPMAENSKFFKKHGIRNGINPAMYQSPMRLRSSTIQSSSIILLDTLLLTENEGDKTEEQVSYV

Key:
[1] = tested on: PK6; conditions: control 10 µM; compounds 1 µM; ref [25]; cited from earlier work
[2] = molecular target: 5-HT2B receptor (Homo sapiens, UniProt P41595); assay: 5-HT2B radioligand binding

Compound | PK6 % inhibition [1] | Ki [2]
CN[C@@H]1C[C@H]2O[C@@](C)([C@@H]1OC)n1c3ccccc3c3c4c(c5c6ccccc6n2c5c31)C(=O)NC4 [staurosporine] | > 80% | 
CC[C@@H](CO)NC(=O)[C@@H]1C=C2c3cccc4c3c(cn4C)C[C@H]2N(C)C1 [methysergide] |  | 8.8 nM
